Source: publication PMC11569263
No constants are given. Whether binding was seen depends on the method and setting. In cells and extracts the contact can be indirect. Some entries that bind do so weakly or less than the wild type.

Sequences of proteins named here, by UniProt entry; tags and fusion partners are left off. A change or cut given only in a name is not applied to a line headed by its entry.
UniProt Q96D31: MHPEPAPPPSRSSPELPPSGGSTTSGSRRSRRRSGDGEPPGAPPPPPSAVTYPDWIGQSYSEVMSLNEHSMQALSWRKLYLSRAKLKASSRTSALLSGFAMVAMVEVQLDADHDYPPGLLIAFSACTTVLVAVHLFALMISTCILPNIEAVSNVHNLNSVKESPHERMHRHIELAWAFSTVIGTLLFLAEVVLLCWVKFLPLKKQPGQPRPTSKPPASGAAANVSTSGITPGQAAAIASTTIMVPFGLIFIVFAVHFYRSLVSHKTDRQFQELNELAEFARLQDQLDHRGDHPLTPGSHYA

Columns and labels:
Assay in all cases: FRET or BRET; homomerization FRET by confocal microscopy in living HEK293 cells co-expressing C-terminally CFP- and YFP-labelled copies of the same Orai1 variant; room temperature, 18-24 h after transfection
[1] = target: wt Orai1-CFP / wt Orai1-YFP (human Orai1, C-terminally CFP- or YFP-labelled) (human) (UniProt Q96D31)
[2] = target: Orai1-V181R-CFP / Orai1-V181R-YFP (C-terminally labelled) (human) (UniProt Q96D31)
[3] = target: Orai1-V181A-CFP / Orai1-V181A-YFP (C-terminally labelled) (human) (UniProt Q96D31)
[4] = target: Orai1-V181K-CFP / Orai1-V181K-YFP (C-terminally labelled) (human) (UniProt Q96D31)
[5] = target: Orai1-V181E-CFP / Orai1-V181E-YFP (C-terminally labelled) (human) (UniProt Q96D31)

**Q.** How did the binding [1] turn out when “wt Orai1-CFP / wt Orai1-YFP (human Orai1, C-terminally CFP- or YFP-labelled) (from UniProt Q96D31-1 1-301)” was run?
**A.** binds

**Q.** Which binding [2] does the source give for “Orai1-V181R-CFP / Orai1-V181R-YFP (C-terminally labelled) (from UniProt Q96D31-1 1-301)” here?
**A.** binds

**Q.** How did the binding [3] turn out when “Orai1-V181A-CFP / Orai1-V181A-YFP (C-terminally labelled) (from UniProt Q96D31-1 1-301)” was run?
**A.** binds

**Q.** With “Orai1-V181K-CFP / Orai1-V181K-YFP (C-terminally labelled) (from UniProt Q96D31-1 1-301)” as the substance, how does the binding [4] read?
**A.** binds

**Q.** Which binding [5] does the source give for “Orai1-V181E-CFP / Orai1-V181E-YFP (C-terminally labelled) (from UniProt Q96D31-1 1-301)” here?
**A.** binds
